Data taken from US7645882B2, “Inhibitor of protein modification products formation” (priority 2003, dated 2010).
At least one compound was matched to its structure with a doubt left.

System: SHR/NDmcr-cp rat
Assay: Renal protecting effect in SHR/NDmcr-cp rat
Type: in vivo
Conditions: 33 weeks aged, 20 weeks administration; TM-2002 50 mg/kg in diet, olmesartane 3 mg/kg oral
Text: Renal protecting effect was observed using SHR/NDmcr-cp (Disease Model Cooperative Research Association) rat, which had been known their high blood pressure, hyperglycemia, hyperlipemia, obesity and hyperinsulinemia and renal function disorder while aging.
SHR/NDmcr-cp rat and Wistar Kyoto rat (Disease Model Cooperative Research Association) of 9 weeks aged were conformed for 3 weeks and measured their body weight and blood collection before administration. One group contain five rats (body weight 440 g±32 g). After division, excipient (negative control), positive control compound and test compound were administered 20 weeks. Carboxymethylcellulose (carboxymethyl cellulose Na/ Wako) solution as excipient and olmesartane, which is one of the angiotensin II receptor antagonist and has renal protective effect, as positive control compound were used to examine the effect of TM-2002 (test compound). The dosage of olmesartane was 3 mg per 1 kg of body weight and that of TM-2002 was 50 mg per 1 kg of body weight. Olmesartane was prepared by suspending or solving the designed amount in 1.0 ml of 0.5% carboxymethylcellulose solution or purified water, and TM-2002 was prepared by mixing the designed amount in 30 g of diet (for one day). Since the increase of body weight of test animals was remarkable, the amount of positive control compound and test compound was modified depending on the result of body weight measuring (every week). […] While administration period, body weight was measured every week, and blood collection, urine collection and blood pressure measuring were done every 2 weeks before 4 weeks aged and every 4 weeks after 5 weeks aged. Blood collection was carried out after warming to 38° C. by warming plate from caudal vein for 800 μl (heparin treatment: the amount of heparin was determined by ratio 15 μl to 1 ml of blood). […] The volume of daily urine was measured when urine was collected. The blood pressure was determined with by the tail-cuff method blood pressure measure (Softron). […]

Question: Which results are given for CCCc1nc(C(C)(C)O)c(C(=O)O)n1Cc1ccc(-c2ccccc2-c2nnn[nH]2)cc1 [olmesartane, reference compound]?
Answer: blood pressure: blood pressure lowering; renal function / renal protective effect: renal function improving; urinary protein: urinary protein suppressing
